Screen size: about 330,000 compounds; about 7,700 (2.3%) were called active. This list was built around the results that the source calls inconclusive (neither active nor inactive); the mix of calls is not that of the screen. Calls come from the whole dose curve; as a rule, active = well fitted inhibition curve with a large enough effect; inconclusive = small, poorly fitted or top-dose-only effect, or effect the other way; inactive = flat fitted curve, though single readings scatter. Potencies beside an inconclusive call are fits to weak or partial responses and may not hold up.
Experiment: qHTS screen for small molecules that inhibit ELG1-dependent DNA repair in human embryonic kidney (HEK293T) cells expressing luciferase-tagged ELG1; note: nearly all actives have a fitted effect of over 55% in size
Details: HEK293T ELG1-luciferase reporter, luminescence, 16 h, DNA damage induced by 5-fluorouridine; activity change, negative = inhibition: at 46.1 µM (top of the series)
Method in brief: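 DMSO vehicle served as the neutral condition. Each well held 2,000 cells given 5-fluorouridine plus compound; after 16 hr at 37 °C/5% CO2, ONE-Glo was added and luciferase measured 30 min later.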
% is set by controls: 0 for no effect and ±100 for the full control effect; potency is the fitted concentration of half-maximal effect.

Row | Compound | activity change, negative = inhibition | Potency
1 | O=C(N1CCOCC1)N1c2ccccc2Sc2ccccc21 | inactive: 5.64% | –
2 | CNC(=O)c1ccc(NC(=O)CN2c3cccc4cccc(c34)S2(=O)=O)cc1 | – | inconclusive: 23.1 µM [inhibitor, partial curve, poor fit]
3 | C/C(=N\Nc1cc(N2CCOCC2)ncn1)c1ccc(O)cc1 | inactive: 21% | –
4 | O=C(NCCc1csc(-c2cccnc2)n1)c1cccc(Cl)c1 | – | inconclusive: 23.1 µM [inhibitor, single point]
5 | O=C(Cn1cnc2ccccc2c1=O)NCCC(=O)Nc1ccc2c(c1)OCCO2 | inactive: 13.7% | –
6 | O=C(N[C@H]1C/C=C\C[C@H](CC(=O)N(CCO)Cc2ccccc2)C(=O)NC[C@H](c2ccccc2)OC1=O)OCC1c2ccccc2-c2ccccc21 | inactive: -2.71% | –
7 | O=C(CSc1n[nH]c(-c2ccc(S(=O)(=O)NC3CCCCC3)cc2)n1)N1CCCC1 | inactive: 0% | –
8 | Cc1ccoc1C(=O)Nc1cccc(Oc2ccccc2)c1 | – | inconclusive: 11.6 µM [activator, partial curve]
9 | COc1cc(Cn2ccnc2)c(OC)cc1Cn1ccnc1 | – | inconclusive: 23.1 µM [activator, partial curve, poor fit]
10 | COc1ccc(CC(=O)NCC2CCCN(Cc3ccc(SC)cc3)C2)cc1 (stereo not drawn) | inactive: -14.7% | –
11 | O=C(c1ccc(COc2ccccc2Cl)o1)N1CCN(c2ccccc2)CC1 | – | inconclusive: 32.6 µM [inhibitor, single point]
12 | Cc1ccccc1Cn1ccc(NC(=O)c2cc3nc(-c4ccco4)cc(C(F)(F)F)n3n2)n1 | inactive: 9.32% | –
13 | c1ccc2sc(-c3ccncc3)nc2c1 | – | inconclusive: 18.3 µM [activator, partial curve]
14 | CCCCc1ccc(NS(=O)(=O)c2cccs2)cc1 | inactive: 16.1% | –
15 | CC(=O)c1cc(F)c(N2CCN(C(=O)COc3ccccc3F)CC2)cc1C | – | inconclusive: 29.1 µM [inhibitor, partial curve]
16 | CCc1ccc(-c2nc(CSCC(=O)NCc3ccco3)c(C)o2)cc1 | – | inconclusive: 18.3 µM [inhibitor, single point]
17 | COc1cccc(OCc2nc(-c3ccc(Br)o3)no2)c1 | – | inconclusive: 18.3 µM [activator, single point]
18 | Cc1ccc(NC(=O)CN2C(=O)N/C(=C/c3ccccc3OCc3cccc(C(=O)O)c3)C2=O)cc1 | – | inconclusive: 23.1 µM [activator, partial curve]
19 | CC(C)Cc1cc(C(=O)NCc2cccs2)no1 | – | inconclusive: 13 µM [activator, partial curve]
20 | CNS(=O)(=O)c1cn(CC(=O)NCc2ccc(OC)cc2)cc1S(=O)(=O)NC | inactive: 5.46% | –
21 | CNC(=S)NC12CC3CC(CC(C3)C1)C2 | inactive: 0% | –
22 | CCC(=O)OCCNc1cc(Sc2nc3ccccc3s2)c2nonc2c1[N+](=O)[O-] | inactive: 8.77% | –
23 | CCOC(=O)/C(C#N)=C1/C=CN(Cc2ccccc2)C=N1 | inactive: 15.3% | –
24 | Cc1ccccc1NC(=O)Cc1c(O)c2ccccc2[nH]c1=O | inactive: 16.9% | –
25 | COc1ccc(COc2cc(-c3cccc(OC)c3)nc3ccc(NC(=O)c4ccc(N(C)C)cc4)cc23)cc1 | – | inconclusive: 4.61 µM [inhibitor, full curve]

Already shown: entries from further up.
Row | Compound | activity change, negative = inhibition | Potency
16 | CCc1ccc(-c2nc(CSCC(=O)NCc3ccco3)c(C)o2)cc1 | – | inconclusive: 18.3 µM [inhibitor, single point]
17 | COc1cccc(OCc2nc(-c3ccc(Br)o3)no2)c1 | – | inconclusive: 18.3 µM [activator, single point]
18 | Cc1ccc(NC(=O)CN2C(=O)N/C(=C/c3ccccc3OCc3cccc(C(=O)O)c3)C2=O)cc1 | – | inconclusive: 23.1 µM [activator, partial curve]
19 | CC(C)Cc1cc(C(=O)NCc2cccs2)no1 | – | inconclusive: 13 µM [activator, partial curve]
20 | CNS(=O)(=O)c1cn(CC(=O)NCc2ccc(OC)cc2)cc1S(=O)(=O)NC | inactive: 5.46% | –

Further results:

Row | Compound | activity change, negative = inhibition | Potency
26 | COc1cc(/C=N/NC(=O)c2ccccc2Cl)ccc1Oc1ccc([N+](=O)[O-])cn1 | – | inconclusive: 23.1 µM [inhibitor, single point]
27 | COc1ccc(-c2c(C)nc3c(-c4ccccn4)cnn3c2N)cc1 | – | inconclusive: 2.31 µM [activator, partial curve]
28 | CCOc1cc(CNc2ccc3c(c2)CCC3)ccc1O | – | inconclusive: 29.1 µM [activator, single point]
29 | CC1=Nc2ccccc2N=C(NC(=O)CSC(=S)N2CCCCC2)C1c1ccccc1 (stereo not drawn) | – | active: 20.6 µM
30 | Cc1ccc(C(=O)Nc2sc(C)c(-c3ccccc3)c2C(N)=O)cc1[N+](=O)[O-] | – | inconclusive: 2.06 µM [activator, full curve]
31 | Cc1cccc(C)c1OCc1cc(C(=O)N2CCC[C@H]2C(N)=O)no1 | – | inconclusive: 23.1 µM [activator, single point]
32 | O=C(NCCN1C(=O)S/C(=C\c2cccs2)C1=O)c1ccc(=O)[nH]c1 | inactive: -1.28% | –
33 | COc1cccc(C2Nc3ccccc3C(=O)N2O)c1O (stereo not drawn) | – | inconclusive: 12.6 µM [activator, partial curve, poor fit]
34 | COc1ccc2c(Cl)c(C(=O)N/N=C/c3c(C)[nH]c4ccccc34)sc2c1 | – | active: 23.1 µM
35 | COc1ccc(CNC(=O)c2noc3c2CCCC3)cc1 | – | inconclusive: 20.6 µM [activator, partial curve, poor fit]
36 | O=C(Cc1ccc(F)cc1)Nc1nc(-c2ccc(F)c(F)c2)cs1 | inactive: -1.6% | –
37 | CC[C@]12c3[nH]c4cc(CCC(=O)N(C)C)ccc4c3CCN1C(=O)[C@@H](CC(=O)NCc1cccc(C(F)(F)F)c1)C[C@@H]2C(=O)N1CCN(C(=O)c2ccco2)CC1 | – | inconclusive: 29.1 µM [activator, single point]
38 | COc1ccc(NC(=O)C/C(C)=N/NC(=O)c2ccccn2)c(OC)c1 | – | inconclusive: 23.1 µM [activator, single point]
39 | CCOc1ccc(-c2nnc(SCC(=O)N3CCCC3)o2)cc1 | – | inconclusive: 5.17 µM [activator, single point]
40 | COc1ccc(C(=O)Cc2cc(OC)c(OC)cc2[N+](=O)[O-])c(OC)c1 | inactive: 7.51% | –
41 | COc1cc(NC(C(=O)Nc2cccc(C(C)=O)c2)c2ccccc2)cc(OC)c1OC (stereo not drawn) | – | inconclusive: 6.51 µM [activator, partial curve]
42 | CN1c2ccsc2/C(=N/Nc2ccccc2)CS1(=O)=O | – | inconclusive: 7.3 µM [activator, partial curve]
43 | Cc1ccc(N(C(=O)c2csnn2)C(C(=O)NC2CCCCC2)c2cccnc2)c(C)c1 (stereo not drawn) | inactive: -2.44% | –
44 | Cc1cc(C)c(S(=O)(=O)N2CCCOC2CNC(=O)C(=O)NCc2cccs2)c(C)c1 (stereo not drawn) | – | inconclusive: 29.1 µM [activator, single point]
45 | CN(C)S(=O)(=O)c1ccc(C(=O)OCC(=O)Nc2sc3c(c2C#N)CCCCC3)cc1 | – | inconclusive: 20.6 µM [activator, partial curve]
46 | Cc1nnc(SCC(=O)NCc2ccc(F)cc2)[nH]c1=O | – | inconclusive: 5.17 µM [inhibitor, single point]
47 | CCNC(=S)NNC(=O)c1cc(-c2ccccc2C)nc2ccccc12 | inactive: -8.26% | –
48 | Cc1ccc(CSc2nc3nc(C)cc(C)n3n2)cc1 | – | inconclusive: 18.3 µM [activator, partial curve]
49 | Cc1ccccc1C(=O)NCC(=O)OC(C)C(=O)NC(C)CCc1ccccc1 (stereo not drawn) | inactive: 2.29% | –
50 | COc1cc(C(=O)N2CCC(NC(=O)C(Cc3ccc(C)cc3)NC(C)=O)CC2)cc(OC)c1OC (stereo not drawn) | inactive: 14.8% | –

Row | Compound | activity change, negative = inhibition | Potency
51 | O=C(N/N=C/c1ccc(Cl)cc1Cl)c1ccc2nc[nH]c2c1 | – | inconclusive: 20.6 µM [activator, single point]
52 | O=C(Nc1ccncc1)Nc1cccc(Cl)c1 | – | inconclusive: 23.1 µM [activator, partial curve, poor fit]
53 | O=C(C[C@H]1C/C=C\C[C@H](Cc2ccc(F)cc2)C(=O)O[C@@H](c2ccccc2)CNC1=O)N[C@@H](CO)Cc1ccccc1 | inactive: -4.29% | –
54 | COC(=O)C1CCN(C(=O)C23CCC(C)(C(=O)O2)C3(C)C)CC1 (stereo not drawn) | inactive: -5.7% | –
55 | COc1cc(CC(=O)OCC(=O)Nc2ccc(N(C)C)cc2)cc(OC)c1OC | inactive: 0% | –
56 | Cc1nn(C)c(C)c1CNC(=O)Nc1ccc(Cl)cc1 | – | inconclusive: 8.2 µM [activator, partial curve]
57 | CSc1nc(N(CCO)CCO)c2sc3nc(-c4ccco4)c4c(c3c2n1)CCC4 | – | inconclusive: 16.4 µM [inhibitor, single point]
58 | COc1ccc(F)cc1S(=O)(=O)Nc1cccc(C(=O)O)c1 | inactive: -2.6% | –
59 | Cc1cc(C(=O)COC(=O)c2ccc[nH]c2=O)c(C)n1-c1ccc(Br)cc1 | – | inconclusive: 8.2 µM [activator, partial curve]
60 | O=C(/C=C/c1ccco1)NCC(=O)N/N=C/c1ccccc1[N+](=O)[O-] | inactive: 25.3% | –
61 | N/C(=N\O)C1COc2ccccc2O1 (stereo not drawn) | inactive: 16.8% | –
62 | CC(=O)N1c2ccc(S(=O)(=O)N(C)CC(=O)NCc3ccccc3)cc2CC1C (stereo not drawn) | inactive: -0.639% | –
63 | CC1CCC(NC(=O)c2cccc(S(=O)(=O)N3CCN(C)CC3)c2)CC1 (stereo not drawn) | – | inconclusive: 14.6 µM [activator, partial curve, poor fit]
64 | CC(=O)C1=C(C)Nc2ncnn2C1c1cccc(Br)c1 (stereo not drawn) | inactive: 12.2% | –
65 | Cc1c(C(=O)NCCN(C)C)oc2ccc(S(=O)(=O)N3CCC4(CC3)OCCO4)cc12 | inactive: 15.1% | –
66 | CC(C)Nc1nc2ccccc2c(=O)[nH]1 | inactive: -1.87% | –
67 | COc1ccc(/C=C(\NC(=O)c2ccccc2Cl)C(=O)NCCCC(=O)O)cc1 | – | inconclusive: 25.9 µM [activator, single point]
68 | CCn1c(-c2nonc2NC(=O)c2ccccc2)nc2ccccc21 | inactive: -7.71% | –
69 | CCCCn1c(=NC(=O)c2cccnc2)c(C(=O)OCC)cc2c(=O)n3ccccc3nc21 | – | inconclusive: 11.6 µM [inhibitor, partial curve, poor fit]
70 | O=C(NCC(O)c1ccccc1)c1ccccc1 (stereo not drawn) | – | inconclusive: 8.2 µM [activator, partial curve]
71 | O=C(Cn1cnc2ccccc2c1=O)NNC(=O)c1ccccc1 | inactive: 23.2% | –
72 | Cc1ccc2c(c1)N(C(=O)CCC(=O)NCCCN1CCC(Cc3ccccc3)CC1)CCO2 | inactive: -17.9% | –
73 | COc1ccc2cc1Oc1ccc(cc1)C[C@H]1c3cc(c(OC)cc3CCN1C)Oc1c(OC)c(OC)cc3c1[C@H](C2)N(C)CC3 | inactive: 5.17% | –

— PubChem BioAssay AID504467 (National Center for Advancing Translational Sciences (NCATS), 2011)
